Source: US9481610B2, “Use of a fertilizer containing L-amino acid for improving root growth and growth of mycorrhiza” (SweTree Technologies AB, priority 2007, dated 2016)

System: Arabidopsis thaliana
Test: Allocation of glutamine-N and nitrate-N (15N labelling) in Arabidopsis
Format: in vivo
Conditions: Arabidopsis thaliana supplied with mixture of L-Glutamine and nitrate, 3 mM N, 21 days; FIG. 2

| Structure (SMILES) | root nitrogen derived from uptake of the nitrogen form [%] | whole plant nitrogen derived from uptake of the nitrogen form [%] |
| --- | --- | --- |
| O=[N+]([O-])O [nitrate] | ~25 | ~45 |
| NC(=O)CC[C@H](N)C(=O)O [L-Glutamine] | ~75 | ~50 |
